Measurements reported in PubChem BioAssay AID1259405 (NCATS, 2018).

Assay: 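Silenced genes that increase secreted GFP made by CHO cells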 (primary screen)
Cells: Chinese hamster CHO-K1 ovary cells with stable secreted eGFP expression
Knock-down reagent: single siRNA against mouse genes, 0.8 pmol siRNA per well (2 µl of 400 nM stock)
Time to read-out: 3 days
Detection: 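Percent of the per-plate non-targeting control median for intracellular GFP per well by laser scanning cytometry and for cell viability by ATP luminescence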
Reading the numbers: GFP, % of control: higher = more GFP per well, higher productivity
Rule for the call: 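a knock-down is called active if GFP reaches 120% or more of non-targeting control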
The whole screen tested about 50,000 reagents; below is a random part of them. Over the whole deposit, about 4,000 (8%) got an active call. 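Mouse siRNA library applied to hamster cells; one well for each siRNA.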 Entries without a mark were called inactive. Reagents against one gene are numbered here. Further read-outs or replicates are left out here.

GFP, % of control, by gene and reagent
Gabra4: #1 67.4; #2 66; #3 50
Tkt: #1 102; #2 46.6; #3 71.7
Or7g18: #1 62; #2 92.3; #3 58.7
Defa4: #1 73.1; #2 57.4; #3 127 (active)
Fosl2: #1 72.8; #2 93.1
Kel: #1 85.7; #2 72.6; #3 70.7
Icos: #1 55.5; #2 69.8; #3 117
F8a: #1 77.3; #2 115; #3 92.3
Lin28a: #1 60; #2 59; #3 64
C1d: #1 90.8; #2 102; #3 74.1
Prpf39: #1 41.6; #2 45.8; #3 85.8
Rhpn2: #1 107; #2 48.4; #3 73.1
Egfr: #1 107
Tuba8: #1 75.1; #2 40
Gabrp: #1 69.8; #2 108; #3 47.1
Ccr9: #1 92.8; #2 100; #3 108
Ppil3: #1 107; #2 77.8; #3 65.3
Rnf113a2: #1 48.4; #2 57.3; #3 60
Or4x11: #1 131 (active); #2 49.9; #3 53.2
Tmlhe: #1 60.1; #2 23.3; #3 66.7
Rps16: #1 71.7; #2 53.1; #3 77.3
Lysmd2: #1 122 (active); #2 62.3; #3 68.1
Ak2: #1 70.7
Apom: #1 28.1; #2 58.4; #3 88.9
Ttl: #1 41.1; #2 87
Glmp: #1 111; #2 104; #3 30.4
Cmtm6: #1 125 (active); #2 77.4; #3 130 (active)
Anapc10: #1 71.9; #2 104; #3 77.6
Or5v1b: #1 68.5; #2 79.1; #3 81.2
Hdhd2: #1 64; #2 81.5; #3 46.3
Tmem144: #1 118; #2 86.5; #3 100

9 entries already listed, ordered by “GFP, % of control”, highest first.
gene	siRNA no.	GFP, % of control
Icos	3	117
F8a	2	115
F8a	3	92.3
Kel	1	85.7
F8a	1	77.3
Kel	2	72.6
Kel	3	70.7
Icos	2	69.8
Icos	1	55.5
